From patent US20030148312A1, “Method for testing for allergic disease” (NATIONAL CENTER FOR CHILD HEALTH AND DEVELOPMENT, priority 2001, published 2003)
For at least one compound, name, drawing or mass did not settle the structure.

Test system: MAL gene (X76223)
Test: Gene expression analysis of T cells in PBMC stimulated with mite antigen using GeneChip
Type: cell-based, Homo sapiens
Conditions: PBMC cultured with mite extracts and dexamethasone (100 nM), 12 h or 40 h; T cells (CD3-positive) separated

Compound: C[C@@H]1C[C@H]2[C@@H]3CCC4=CC(=O)C=C[C@]4(C)[C@@]3(F)[C@@H](O)C[C@]2(C)[C@@]1(O)C(=O)CO [dexamethasone]
- increase in the MAL expression in T cells: suppressed
